# The supplement of paper PMC8728848
# The list shows a part of the results.
# B1: GS7807I-bvu-563-22-563 (Bacteroides vulgatus) (protein)
# chain: IFSSCTDDFEKLNTSNIQVDPADLPFAAQCTEPMTYCYPPQQNMFQFWTNLTIDLYGGYFMTPNGNFTNGDMGENRGHSGGMYENYYLHIFNNTRRIIAQCDASGERGLSGVMRIVQAYGTLMTTDAYGPIPYSSILSGENEVYFEFDSQKDLYKAMLEDLSTAITDISAMGADEIAKLKSFDCWCNGDKDLWVKIANTMKLRMALRLSKRETEAGNAGMNLKAIATEAAQNTLATVNKDILIDKSLENEMWLMFNWGDCGFNANLVTIMSGTKDPRQPLYMTLNTGDIKNEAGTTTVAANSQYLGIRFASGLPAKPNSWGNFSGWIQGNNGSSYSMPLPIMKAAEAYFLLAEAKLRWDIGSESVKNLYENGIRVSMTNELAYRGAYAGIKEYPEGAVDAYINGTSTQIDYTDPIKAELSTPAVNKLSVKWDESASNEEKLERIITQKWLALFPLSTEGWAEQRRTGYPRFFPAFVNESNGAVNTEEGVRRVIYSSQAYDANAKGVEGGIKLLDEENSSKFGISGDKGGTHLWWDNADKGNF
# Experiments:
# Assay in all cases: glycan array binding signal (z-score within array); higher = stronger binding
# Conditions in all cases: glycan notation: IUPAC condensed, linker removed
# [1] = target: Fuc(a1-2)Gal(b1-4)GlcNAc(b1-3)Gal(b1-4)GlcNAc(b1-3)Gal(b1-4)GlcNAc
# Method in brief: (§1)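 Negative Z-scores can be read as non-binding. The Z-score is calculated within each array and then averaged across arrays of one protein sequence at different concentrations or buffers and across linkers. Arrays, 3228 in all, were curated from the Consortium for Functional Glycomics database and kept only where the protein sequence was available.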
# [2] = target: Fuc(a1-2)Gal(b1-4)GlcNAc(b1-3)GalNAc
# Method in brief: as §1
# [3] = target: Fuc(a1-2)Gal(b1-4)GlcNAc(b1-3)[Fuc(a1-2)Gal(b1-4)GlcNAc(b1-6)]GalNAc
# Method in brief: as §1
# [4] = target: Fuc(a1-2)Gal(b1-4)GlcNAc(b1-3)[Fuc(a1-3)[Gal(b1-4)]GlcNAc(b1-6)]Gal(b1-4)Glc
# Method in brief: as §1
# [5] = target: Fuc(a1-2)Gal(b1-4)GlcNAc(b1-6)GalNAc
# Method in brief: as §1
# [6] = target: Fuc(a1-2)Gal(b1-4)GlcNAc6S
# Method in brief: as §1
# [7] = target: Fuc(a1-2)Gal(b1-4)[Fuc(a1-3)]GlcNAc
# Method in brief: as §1
# [8] = target: Fuc(a1-2)Gal(b1-4)[Fuc(a1-3)]GlcNAc(b1-2)Man(a1-3)[Fuc(a1-2)Gal(b1-4)[Fuc(a1-3)]GlcNAc(b1-2)Man(a1-6)]Man(b1-4)GlcNAc(b1-4)[Fuc(a1-6)]GlcNAc
# Method in brief: as §1
# [9] = target: Fuc(a1-2)Gal(b1-4)[Fuc(a1-3)]GlcNAc(b1-2)[Fuc(a1-2)Gal(b1-4)[Fuc(a1-3)]GlcNAc(b1-4)]Man(a1-3)[Fuc(a1-2)Gal(b1-4)[Fuc(a1-3)]GlcNAc(b1-2)Man(a1-6)]Man(b1-4)GlcNAc(b1-4)GlcNAc
# Method in brief: as §1
# [10] = target: Fuc(a1-2)Gal(b1-4)[Fuc(a1-3)]GlcNAc(b1-3)Gal(b1-4)[Fuc(a1-3)]GlcNAc
# Method in brief: as §1
# [11] = target: Fuc(a1-2)Gal(b1-4)[Fuc(a1-3)]GlcNAc(b1-3)Gal(b1-4)[Fuc(a1-3)]GlcNAc(b1-3)Gal(b1-4)[Fuc(a1-3)]GlcNAc
# Method in brief: as §1
# [12] = target: Fuc(a1-2)Gal(b1-4)[Fuc(a1-3)]GlcNAc(b1-3)GalNAc
# Method in brief: as §1
# [13] = target: Fuc(a1-2)Gal(b1-4)[Fuc(a1-3)]GlcNAc(b1-3)[Neu5Ac(a2-6)Gal(b1-4)GlcNAc(b1-6)]Gal(b1-4)Glc
# Method in brief: as §1
# [14] = target: Fuc(a1-2)Gal3S(b1-4)GlcNAc
# Method in brief: as §1
# [15] = target: Fuc(a1-2)Gal6S(b1-3)GlcNAc
# Method in brief: as §1
# [16] = target: Fuc(a1-2)Gal6S(b1-3)GlcNAc6S
# Method in brief: as §1
# Fuc(a1-2)Gal6S(b1-4)Glc = target: Fuc(a1-2)Gal6S(b1-4)Glc
# Method in brief: as §1
# [17] = target: Fuc(a1-2)Gal6S(b1-4)Glc6S
# Method in brief: as §1
# Fuc(a1-2)[Gal(a1-3)]Gal = target: Fuc(a1-2)[Gal(a1-3)]Gal
# Method in brief: as §1
# [18] = target: Fuc(a1-2)[Gal(a1-3)]Gal(b1-3)GalNAc
# Method in brief: as §1
# [19] = target: Fuc(a1-2)[Gal(a1-3)]Gal(b1-3)GalNAc(b1-3)Gal(a1-4)Gal(b1-4)Glc
# Method in brief: as §1
# [20] = target: Fuc(a1-2)[Gal(a1-3)]Gal(b1-3)GlcNAc
# Method in brief: as §1
# [21] = target: Fuc(a1-2)[Gal(a1-3)]Gal(b1-3)GlcNAc(b1-2)Man(a1-3)[Fuc(a1-2)[Gal(a1-3)]Gal(b1-3)GlcNAc(b1-2)Man(a1-6)]Man(b1-4)GlcNAc(b1-4)GlcNAc
# Method in brief: as §1
# [22] = target: Fuc(a1-2)[Gal(a1-3)]Gal(b1-3)GlcNAc(b1-2)Man(a1-3)[Fuc(a1-2)[Gal(a1-3)]Gal(b1-3)GlcNAc(b1-2)Man(a1-6)]Man(b1-4)GlcNAc(b1-4)[Fuc(a1-6)]GlcNAc
# Method in brief: as §1
# [23] = target: Fuc(a1-2)[Gal(a1-3)]Gal(b1-3)GlcNAc(b1-3)GalNAc
# Method in brief: as §1
# [24] = target: Fuc(a1-2)[Gal(a1-3)]Gal(b1-3)GlcNAc(b1-6)GalNAc
# Method in brief: as §1
# [25] = target: Fuc(a1-2)[Gal(a1-3)]Gal(b1-4)Glc
# Method in brief: as §1
# [26] = target: Fuc(a1-2)[Gal(a1-3)]Gal(b1-4)GlcNAc
# Method in brief: as §1
# [27] = target: Fuc(a1-2)[Gal(a1-3)]Gal(b1-4)GlcNAc(b1-2)Man
# Method in brief: as §1
# [28] = target: Fuc(a1-2)[Gal(a1-3)]Gal(b1-4)GlcNAc(b1-2)Man(a1-3)[Fuc(a1-2)[Gal(a1-3)]Gal(b1-4)GlcNAc(b1-2)Man(a1-6)]Man(b1-4)GlcNAc(b1-4)GlcNAc
# Method in brief: as §1
binder,measurement,setting,value
B1,glycan array binding signal (z-score),[1],-0.467
same,glycan array binding signal (z-score),[2],2.15
same,glycan array binding signal (z-score),[3],-0.146
same,glycan array binding signal (z-score),[4],-0.07
same,glycan array binding signal (z-score),[5],0.799
same,glycan array binding signal (z-score),[6],0.744
same,glycan array binding signal (z-score),[7],-1.33
same,glycan array binding signal (z-score),[8],-0.119
same,glycan array binding signal (z-score),[9],-0.709
same,glycan array binding signal (z-score),[10],-0.323
same,glycan array binding signal (z-score),[11],0.752
same,glycan array binding signal (z-score),[12],0.105
same,glycan array binding signal (z-score),[13],-0.243
same,glycan array binding signal (z-score),[14],-1.92
same,glycan array binding signal (z-score),[15],1.12
same,glycan array binding signal (z-score),[16],0.67
same,glycan array binding signal (z-score),Fuc(a1-2)Gal6S(b1-4)Glc,0.511
same,glycan array binding signal (z-score),[17],0.827
same,glycan array binding signal (z-score),Fuc(a1-2)[Gal(a1-3)]Gal,-0.24
same,glycan array binding signal (z-score),[18],-0.741
same,glycan array binding signal (z-score),[19],0.129
same,glycan array binding signal (z-score),[20],-0.036
same,glycan array binding signal (z-score),[21],0.67
same,glycan array binding signal (z-score),[22],-0.026
same,glycan array binding signal (z-score),[23],-0.924
same,glycan array binding signal (z-score),[24],0.231
same,glycan array binding signal (z-score),[25],0.324
same,glycan array binding signal (z-score),[26],0.026
same,glycan array binding signal (z-score),[27],0.101
same,glycan array binding signal (z-score),[28],1.45

# Some of the entries above in a different format:
binder	measurement	setting	value
B1	glycan array binding signal (z-score)	[14]	-1.92
same	glycan array binding signal (z-score)	[15]	1.12
same	glycan array binding signal (z-score)	[16]	0.67
same	glycan array binding signal (z-score)	Fuc(a1-2)Gal6S(b1-4)Glc	0.511
same	glycan array binding signal (z-score)	[17]	0.827
same	glycan array binding signal (z-score)	Fuc(a1-2)[Gal(a1-3)]Gal	-0.24
same	glycan array binding signal (z-score)	[18]	-0.741
same	glycan array binding signal (z-score)	[19]	0.129
same	glycan array binding signal (z-score)	[20]	-0.036
